Results are given in words; binding and its absence hold for the method and conditions named. Binding seen in cells or lysates may run through a third protein. Some binding calls cover weakened binding; strength is not graded here.
Target: MDM2 (human (endogenous in MNNG HOS)) (UniProt Q00987)
Assay: co-IP; MNNG HOS cells lysed in IP lysis buffer; 1.0 mg protein incubated with the antibody at 4 °C overnight, then with 20 μL beads at 4 °C for 2 h; washed twice; western blot

Sequences of proteins named here, by UniProt entry; tags and fusion partners are left off.
UniProt Q00987: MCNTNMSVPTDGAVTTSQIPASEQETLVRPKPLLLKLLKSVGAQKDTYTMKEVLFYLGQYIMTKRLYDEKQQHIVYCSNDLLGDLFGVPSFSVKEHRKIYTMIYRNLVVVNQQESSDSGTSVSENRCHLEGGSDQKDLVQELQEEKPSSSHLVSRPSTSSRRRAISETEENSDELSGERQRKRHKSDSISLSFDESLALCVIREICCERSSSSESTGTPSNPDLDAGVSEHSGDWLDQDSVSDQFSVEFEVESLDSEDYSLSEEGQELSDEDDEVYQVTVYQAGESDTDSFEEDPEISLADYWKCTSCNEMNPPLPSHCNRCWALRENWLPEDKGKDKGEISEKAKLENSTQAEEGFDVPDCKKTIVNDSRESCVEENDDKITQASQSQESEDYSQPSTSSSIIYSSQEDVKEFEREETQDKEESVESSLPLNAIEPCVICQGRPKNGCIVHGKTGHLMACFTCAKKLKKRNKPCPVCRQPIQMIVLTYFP

- binding: binds
B1: DNA polymerase epsilon 2 (POLE2) (protein, UniProt P56282 1-527)
chain: MAPERLRSRALSAFKLRGLLLRGEAIKYLTEALQSISELELEDKLEKIINAVEKQPLSSNMIERSVVEAAVQECSQSVDETIEHVFNIIGAFDIPRFVYNSERKKFLPLLMTNHPAPNLFGTPRDKAEMFRERYTILHQRTHRHELFTPPVIGSHPDESGSKFQLKTIETLLGSTTKIGDAIVLGMITQLKEGKFFLEDPTGTVQLDLSKAQFHSGLYTEACFVLAEGWFEDQVFHVNAFGFPPTEPSSTTRAYYGNINFFGGPSNTSVKTSAKLKQLEEENKDAMFVFLSDVWLDQVEVLEKLRIMFAGYSPAPPTCFILCGNFSSAPYGKNQVQALKDSLKTLADIICEYPDIHQSSRFVFVPGPEDPGFGSILPRPPLAESITNEFRQRVPFSVFTTNPCRIQYCTQEITVFREDLVNKMCRNCVRFPSSNLAIPNHFVKTILSQGHLTPLPLYVCPVYWAYDYALRVYPVPDLLVIADKYDPFTTTNTECLCINPGSFPRSGFSFKVFYPSNKTVEDSKLQGF
